The results in this text go back to patent US20230382976.

For at least one entry, the source does not settle the construct or the ends of the probe.

One data set deals with Type II collagen. Nature of the data set: binding assay. The conditions noted are these: turbidity at 400 nm; fibers form slower than with collagen I; purified native protein; single-stranded DNA.
Data set [1] has as its system Type I collagen (Rattus norvegicus). Nature of the data set: binding assay. The note with it: purified native protein, protein details: rat tail tendon, Corning.

For the sequence “GATGTGAGTGTGTGACGAGCTACGACGTCTGGTGTAATTTATAAAGACACTGTGTATATCAACAACAGAACAAGGAAAGG [VEGF-R2 aptamer monovalent]”, the binding result in the data set on Type II collagen is reported as “binds”.

For “GATGTGAGTGTGTGACGAGCTACGACGTCTGGTGTAATTTATAAAGACACTGTGTATATCAACAACAGAACAAGGAAAGGGATGTGAGTGTGTGACGAGCTACGACGTCTGGTGTAATTTATAAAGACACTGTGTATATCAACAACAGAACAAGGAAAGG [VEGF-R2 aptamer divalent assembly]”, in data set [1] ((PEG)6 linker joining the two copies 3'-3', fibers and large macroscopic aggregates, single-stranded DNA, variant of VEGF-R2 aptamer monovalent), the binding result is listed as “binds”.

Regarding “TAATGAGAAGTATGTGTAGAGTCAATGAGATACGCAATTGGGAAGACAAGAGTATTGACTCGGACTGAGTACAATCGTCCTAATGAGAAGTATGTGTAGAGTCAATGAGATACGCAATTGGGAAGACAAGAGTATTGACTCGGACTGAGTACAATCGTCC [random ssDNA divalent assembly]”, the binding result in data set [1] ((PEG)6 linker joining the two copies, fibers formed at 30% vol collagen, single-stranded …, variant of random ssDNA oligomer monovalent 80 nt) is recorded as “binds”.
